Experimental data: PubChem BioAssay AID587 (National Center for Advancing Translational Sciences (NCATS), 2007)
The campaign covered roughly 59,000 compounds. About 35 (0.06%) were called active. Inconclusive results, whose numbers are uncertain, are shown with a selection of clear calls. Cut-off read from the data, not from the text of the source: active = max dye-equivalent concentration above about 10 nM; inconclusive = between about 1.1 nM and that limit; inactive = weaker than that.

test: qHTS Assay for Spectroscopic Profiling in Texas Red Spectral Region; conditions: Compound fluorescence, Texas Red channel, 547/618 nm; active compounds read high
Summary of the method: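 Compound titrations in 100 mM Tris pH 8.0 were incubated 15 min at room temperature and read at 547 nm excitation / 618 nm emission. Texas Red six-point standard curve on each plate converted fluorescence to dye-equivalent concentration.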

| SMILES | max dye-equivalent concentration |
| --- | --- |
| Nc1cccc(OCc2nc(N)nc(N)c2-c2ccc(Cl)cc2)c1 | inactive |
| Nc1ncc2c(n1)CC(c1ccco1)CC2=O (stereo not given) | inconclusive: 1.4 nM |
| Cc1csc(=NC(=O)c2ccccc2)n1Cc1ccco1 | inconclusive: 1.4 nM |
| Cc1cc(-c2nc3ccccc3o2)c2ccccc2n1 | inconclusive: 1.2 nM |
| CCCCCn1ccc(=N)cc1 | inconclusive: 1.6 nM |
| O=C(CSc1nnc(-c2cccs2)n1-c1ccccc1)N1CCN(C(=O)c2ccco2)CC1 | inconclusive: 1.3 nM |
| O=C(Nc1ccc(SC(F)F)cc1)c1ccc2nccnc2c1 | inconclusive: 1.1 nM |
| O=C1Cc2ccccc2N1c1ccccc1 | inconclusive: 1.6 nM |
| O=C(C1CCN(Cc2cc(Cl)ccc2O)CC1)N1CCN(Cc2ccccc2)CC1 | inconclusive: 1.1 nM |
| N#CCCn1ccc(NC(=O)c2ccc(Cl)cc2)n1 | inconclusive: 1.3 nM |
| COc1cc(S(C)=O)ccc1-c1nc2ncccc2[nH]1 (stereo not given) | inconclusive: 1.3 nM |
| O=C1OCCC1N1C(=O)c2ccccc2S1(=O)=O (stereo not given) | inconclusive: 1.8 nM |
| COc1cc(C2c3c(oc4c(C)cc(C)cc4c3=O)C(=O)N2Cc2cccnc2)cc(OC)c1OC (stereo not given) | inconclusive: 1.3 nM |
| C=CCNS(=O)(=O)c1ccc(OCC(=O)OC)cc1 | inconclusive: 1.5 nM |
| CN1CCN(c2ncc3nc(-c4ccc(Cl)cc4)c(=O)n(-c4ccccc4)c3n2)CC1 | inactive |
| CC(=O)Nc1c2c3c(cccc3n(C)c1=O)C(=O)c1ccccc1-2 | inactive |
| COc1ccc(S(=O)(=O)N2CCC(C(=O)NC3CC3)CC2)cc1Cl | inconclusive: 1.2 nM |
| CCOC(=O)c1cc(-c2cc3ccccc3o2)nc2c1c(=O)[nH]c(=O)n2CCOC | inconclusive: 1.9 nM |
| Cc1cccc2cc(C(c3nnnn3CC3CCCO3)N3CCCC4(CCCCC4)C3)c(=O)[nH]c12 (stereo not given) | inconclusive: 1.1 nM |
| COc1ccc(-n2c(=O)c(C)nc3cnc(Oc4ccccc4)nc32)cc1 | inactive |
| O=C(Nc1ccc2c(c1)OCCO2)C1CCN(c2cnccn2)CC1 | inactive |
| CCCCOc1ccc(C(O)(CCC)CCN2CCOCC2)cc1 (stereo not given) | inconclusive: 1.2 nM |
| Cc1cnc(NC(=O)COc2ccccc2Cl)s1 | inconclusive: 1.5 nM |

| SMILES | max dye-equivalent concentration |
| --- | --- |
| CN(C)c1ccc(-c2nnn(Cc3ccccc3Br)n2)cc1 | inconclusive: 1.5 nM |
| Cn1c(=O)c(NC(=O)c2ccccc2)c2n(c1=S)CCCCC2 | inconclusive: 1.9 nM |
| O=C(OCc1ccccc1)c1ccc(Br)o1 | inconclusive: 1.2 nM |
| C=CCN1C(=Nc2ccccc2)SC/C1=C\C(=O)OC | inconclusive: 1.5 nM |
| CC1(C)C2CCC1(CS(=O)(=O)N1CCCc3ccccc31)C(=O)C2 (stereo not given) | inconclusive: 1.2 nM |
| CCn1nnc(-c2ccccc2NC(=O)c2cccc(-n3cnnn3)c2)n1 | inconclusive: 1.1 nM |
| COCCNC(=O)c1ccc(N2CCCCC2)c(NS(=O)(=O)c2ccc(C)cc2)c1 | inconclusive: 1.6 nM |
| O=[N+]([O-])c1ccc2c(c1)Cc1cc(N=Cc3ccc4c(c3)OCO4)ccc1-2 | inconclusive: 1.9 nM |
| CN(C)CCCN1c2ccccc2Sc2ccccc21 | inconclusive: 1.6 nM |
| N#CCc1nc(CSc2nc3ccccc3s2)cs1 | inconclusive: 2.4 nM |
| NC(N)=N/N=C\c1ccc(O)c(C(=O)O)c1 | inactive |
| COc1ccc(-c2nnc3sc(COc4ccccc4)nn23)cc1 | inconclusive: 1.1 nM |
| Cc1ccc(C(=O)N2CCCC(c3nc4c(nnn4Cc4ccccc4)c(=O)[nH]3)C2)cc1 (stereo not given) | inconclusive: 1.7 nM |
| Cc1ccc(NC(=O)CN(c2ccccc2F)S(C)(=O)=O)cc1 | inconclusive: 1.1 nM |
| CS(=O)(=O)Nc1cccc(-c2nc(Nc3ccncc3)c3ccccc3n2)c1 | inactive |
| CCn1nnc(-c2ccccc2NC(=O)c2cc(OC)cc(OC)c2)n1 | inconclusive: 2.3 nM |
| CCOC(=O)CSc1nnc(Cn2nnc(-c3ccccc3)n2)n1CC | inconclusive: 1.1 nM |
| CCOC(=O)C1CCN(c2c(NCc3ccc(C(=O)NCCC(C)C)cc3)c(=O)c2=O)CC1 | inconclusive: 1.7 nM |
| CCOc1ccc(N2C(=O)C3CCCN3C2=O)cc1 (stereo not given) | inconclusive: 2 nM |
| O=C(NCC1CCCO1)c1ccc(COCC(F)(F)C(F)F)cc1 (stereo not given) | inconclusive: 2.2 nM |
| COCCn1c(-c2ccccc2)nc2oc3ccccc3c(=O)c2c1=O | inconclusive: 1.1 nM |
| CN1CCc2c(sc(/N=C/c3cccs3)c2C(N)=O)C1 | inconclusive: 1.3 nM |
| Cc1ccc(C(=O)CSc2nnc(-c3ccccc3N)n2C)cc1 | inactive |

Part of the list above in order of count of non-hydrogen atoms, rising:

| SMILES | max dye-equivalent concentration |
| --- | --- |
| N#CCCn1ccc(NC(=O)c2ccc(Cl)cc2)n1 | inconclusive: 1.3 nM |
| CCCCOc1ccc(C(O)(CCC)CCN2CCOCC2)cc1 (stereo not given) | inconclusive: 1.2 nM |
| O=C(Nc1ccc2c(c1)OCCO2)C1CCN(c2cnccn2)CC1 | inactive |
| COc1ccc(-n2c(=O)c(C)nc3cnc(Oc4ccccc4)nc32)cc1 | inactive |
| Cc1cccc2cc(C(c3nnnn3CC3CCCO3)N3CCCC4(CCCCC4)C3)c(=O)[nH]c12 (stereo not given) | inconclusive: 1.1 nM |

The results go on:

| SMILES | max dye-equivalent concentration |
| --- | --- |
| Cc1ccc2c(c1)[nH]c1c(N3CCN(Cc4ccccc4)CC3)ncnc12 | inconclusive: 1.1 nM |
| CC(=O)c1ccc(OCCCC(=O)OCc2nnc(-c3ccc(Cl)cc3)o2)cc1 | inconclusive: 1.6 nM |
| COc1ccccc1N1CCN(C(=O)c2nn(-c3ccccc3OC)c(=O)c3ccccc23)CC1 | inconclusive: 1.6 nM |
| CC(=O)Nc1c2c(nn1-c1ccc(C)cc1C)CSC2 | inconclusive: 1.1 nM |
| COc1ccccc1-c1nnc(SCC(=O)Nc2c(Cl)cccc2Cl)o1 | inconclusive: 2.3 nM |
| C=C[C@H]1CN2CC[C@@H]1C[C@@H]2[C@@H](O)c1ccnc2ccc(OC)cc12 | inactive |
| c1ccc(CSc2ncccn2)cc1 | inconclusive: 1.4 nM |
| Cc1ccc(OCCCC(=O)N2CCOCC2)c(C)c1 | inconclusive: 1.4 nM |
| CC(=Nc1cccc(O)c1)c1sc2ccccc2c1O | inactive |
| Cc1cc(NC(=O)c2noc3c2CCCC3)no1 | inconclusive: 1.1 nM |
| O=C(NCc1ccccn1)Nc1ccc(Cl)c(Cl)c1 | inconclusive: 1.1 nM |
| COc1ncc2nc(-c3ccc(Cl)cc3)c(=O)n(C)c2n1 | inactive |
| O=C1OC(Nc2ccc3c(c2)OCO3)c2ccccc21 (stereo not given) | inconclusive: 1.1 nM |
| COCC(=O)N1CCCc2ccccc21 | inconclusive: 1.6 nM |
| CN(C)C(=O)c1ccc(-c2ccc3ncnc(N(C)Cc4ccco4)c3c2)cc1 | inactive |
| CCCCCn1c(=NC(=O)c2ccco2)c(C(=O)OCC)cc2c(=O)n3ccccc3nc21 | inconclusive: 1.3 nM |
| C=CCn1c(-c2cc(OC)c(OC)c(OC)c2)n[nH]c1=S | inconclusive: 1.9 nM |
| Cc1ccccc1OCCNC(=O)CNC(=O)c1ccccc1O | inconclusive: 1.2 nM |
| O=C(CN1CCC(c2nc3ccccc3s2)CC1)NCc1cccs1 | inconclusive: 1.4 nM |
| O=c1c2cc(Cl)ccc2oc2nc3n(c(=O)c12)CCCS3 | inconclusive: 1.1 nM |
| CC(C)(C)OC(=O)[C@H]([C@@H]1N[C@@H](C(=O)O)C(C)(C)S1)N1C(=O)c2ccccc2C1=O | inactive |
| O=c1c(-c2cc(F)cc(F)c2)nc2cnc(N3CCOCC3)nc2n1-c1ccccc1 | inactive |
| CCOC(=O)C1C(=O)Nc2nc(C)nn2C1c1ccccc1 (stereo not given) | inconclusive: 1.1 nM |

| SMILES | max dye-equivalent concentration |
| --- | --- |
| Cc1ccccc1Cn1c(=O)n(CCCC(=O)NCc2ccco2)c(=O)c2ccccc21 | inconclusive: 1.4 nM |
| CCN(CC)c1ccc(NC(=O)c2cccc(OC)c2)c(C)c1 | inconclusive: 1.5 nM |
| COc1ccccc1NC(=O)N(Cc1ccco1)Cc1cc2c(C)ccc(C)c2[nH]c1=O | inconclusive: 1.2 nM |
| CCN(CC)CCN1C(=O)C(=O)/C(=C(/O)c2ccncc2)C1c1ccccc1 (stereo not given) | inconclusive: 1.9 nM |
| CCOC(=O)C1=C(C)N(CCO)C(=O)NC1c1ccccc1 (stereo not given) | inconclusive: 1.8 nM |
| O=C(CCCCCn1c(SCC(=O)c2ccccc2)nc2ccccc2c1=O)NCc1ccco1 | inconclusive: 1.7 nM |
| COC(=O)c1cccc(NC(=O)Cc2coc3cc(OC)ccc23)c1 | inconclusive: 1.1 nM |
| Cc1cccc(CC2CC(=O)N(c3ccccc3)C2=O)c1 (stereo not given) | inconclusive: 1.7 nM |
| Cc1ccc(OCC(=O)Nc2ccc3c(c2)nc(CCN2CCOCC2)n3C)cc1 | inconclusive: 1.4 nM |
| CSc1ncnc2c1ncn2CC(=O)[C@H]1CC[C@H]2[C@H]3CCC4=CC(=O)CC[C@@]4(C)[C@@H]3CC[C@@]12C | inactive |
| CCN(CC)C(=S)SSC(=S)N(CC)CC | inconclusive: 1.3 nM |
| CN1CCN(c2ncnc3ccc(-c4cccc(C#N)c4)cc23)CC1 | inactive |
| CN1CCC2(CC1)C1CN(C)CC=C1C(C#N)=C(N)C2(C#N)C#N (stereo not given) | inactive |
| COCCCN1C(=O)C(=O)/C(=C(/O)c2ccc(OC)cc2C)C1c1cccnc1 (stereo not given) | inconclusive: 1.5 nM |
| C=CCn1c(N)c(C(=O)OCCC)c2nc3ccccc3nc21 | inconclusive: 1.4 nM |
| CCOc1ccc(C(C)(N)C(=O)O)cc1 (stereo not given) | inconclusive: 1.8 nM |
| O=C(C1CCCCC1)N1CC(=O)N2CCc3ccccc3[C@@H]2C1 | inconclusive: 1.1 nM |
| Cc1ccc(NCc2nnc(SCC(=O)OC3CCCCC3)o2)c(C)c1 | inconclusive: 1.2 nM |
| COCCN(C(=O)Nc1ccccc1)c1ccccc1C | inconclusive: 1.1 nM |
| Cc1cc(=O)oc(C)c1C(=O)NCCCN1CCN(c2ccccc2F)CC1 | inconclusive: 1.1 nM |
| COc1ccc(N(CC(=O)NC2CCCC2)C(=O)Cn2nnc(-c3ccc(F)cc3)n2)cc1OC | inconclusive: 2.1 nM |
